Results taken from US10538561B2, “Peptide for treating inflammatory diseases” (priority 2015, dated 2020).
For at least one compound, name, drawing or mass did not settle the structure.

Test system: VEGF
Test: VEGF inhibition in keratinocytes (ELISA)
Type: cell-based, Human
Details: HaCaT, 50 uM
Experimental: Cell lines: Human Keratinocytes (HaCaT); test item: IS181; treatment regimen: single addition—24 hours; concentration range: 0.1 μg/ml-100 μg/ml. […] Cells were serum-starved for another 24 hours (0% FBS). Cells were treated with IS181 for 24 hours. Supernatants were collected and stored at −20° C. till analysed. Levels of VEGF were analysed in supernatants by ELISA. Percent inhibition of VEGF secretion was calculated with reference to untreated levels. Positive control: curcumin; retinoic acid (at non-cytotoxic concentrations).

SMILES: CC1=C(/C=C/C(C)=C/C=C/C(C)=C/C(=O)O)C(C)(C)CCC1 [RA, retinoic acid, reference compound]
- VEGF inhibition: did not result in any VEGF inhibition
